Assay results: PubChem BioAssay AID1439 (NMMLSC, 2008)
Hit rate of the full screen: of about 220,000 compounds, about 770 (0.35%) were called active. This list was built around the results that the source calls inconclusive (neither active nor inactive); the mix of calls is not that of the screen. No stated cut-off is given here; in the data, active means binding response below about 49% or above about 150%; inconclusive means no clear call, values can overlap the other calls; inactive means in between.

By UniProt entry, the sequences of proteins in these tests, tags left out.
UniProt P09471, whole entry, looked up: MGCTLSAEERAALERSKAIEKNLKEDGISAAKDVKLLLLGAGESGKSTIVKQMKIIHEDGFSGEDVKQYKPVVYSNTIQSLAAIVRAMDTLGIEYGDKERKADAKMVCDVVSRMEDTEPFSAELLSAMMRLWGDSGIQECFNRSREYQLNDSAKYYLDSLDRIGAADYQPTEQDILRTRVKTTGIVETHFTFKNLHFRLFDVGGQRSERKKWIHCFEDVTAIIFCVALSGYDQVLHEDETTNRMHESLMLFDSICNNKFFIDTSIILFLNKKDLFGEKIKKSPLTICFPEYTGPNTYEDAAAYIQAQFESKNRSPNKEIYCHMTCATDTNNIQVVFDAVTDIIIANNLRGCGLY

target: Guanine nucleotide-binding protein G(o) subunit alpha (Homo sapiens) (UniProt P09471); assay: RGS7-Galphao binding modulators, primary screen, biochemical, multiplexed bead flow cytometry (AID 1439); conditions: at 10 µM, actives lie on both sides;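 further: fluorescent Galphao held in activated GDP-AlF4 state binding bead-coupled RGS7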

Row | SMILES | binding response (% of control)
1 | CC(C)c1ccccc1NC(=O)Cn1c(/C=C/c2ccccc2)nc2ccccc21 | inconclusive: 116%
2 | CC(C)NC(=O)COC(=O)c1ccc(Oc2ccccc2)cc1 | inactive: 104%
3 | Cc1occc1C(=O)NNC(=O)c1cccc(F)c1 | inconclusive: 104%
4 | CN(/N=C/c1cc(Cl)cc(Cl)c1O)C(=S)NC(C)(C)C | inconclusive: 68.6%
5 | COc1ccc(-c2cc(C(=O)Nc3ccc(S(=O)(=O)Nc4onc(C)c4C)cc3)c3ccccc3n2)cc1OC | inconclusive: 59.1%
6 | Nc1ccccc1SCc1csc(-c2ccc(Cl)cc2)n1 | inconclusive: 138%
7 | COc1ccc(C2CC(c3ccccc3)=NN2C(=O)CN2CCN(Cc3ccccc3)CC2)cc1 (centres undefined) | inconclusive: 101%
8 | COC(=O)/C(C#N)=C/c1c(Oc2cccc(C)c2C)nc2ccccn2c1=O | inconclusive: 74.3%
9 | O=C(COc1ccccc1)N(Cc1cccs1)C1CCS(=O)(=O)C1 (centres undefined) | inconclusive: 95%
10 | Cc1ccc(/C=C/C(=O)c2ccccc2O)cc1 | inconclusive: 125%
11 | CCc1ccc(NC(=S)Nc2cccc3cnccc23)cc1 | inconclusive: 98.7%
12 | O=C(c1ccccc1)c1nn(-c2cccc(Cl)c2)ccc1=O | inconclusive: 104%
13 | COC(=O)C(/C=N/OCc1ccc([N+](=O)[O-])cc1)NC(=O)c1cccc(Cl)c1 (centres undefined) | inactive: 104%
14 | Cc1cc(/C=C(\C#N)C(=O)Nc2ccccc2)c(C)n1-c1ccc(C(=O)O)cc1 | inconclusive: 94.8%
15 | O=C(O)CCC(=O)NNC(=O)c1ccc(Br)cc1 | inactive: 91.3%
16 | O=C(Nc1ccc(S(=O)(=O)Nc2ncccn2)cc1)c1ccc2ncsc2c1 | inconclusive: 120%
17 | Cc1cc(NC(=O)CSc2nnc(C3CC3)n2N)c([N+](=O)[O-])cc1C | inactive: 98.6%
18 | Cc1cc2sc3nc(=O)n(-c4ccccc4)c(=O)n3c2cc1C | inconclusive: 120%
19 | Cc1nnc(Nc2ccc3c(c2)ncn3C)c2ccccc12 | inactive: 114%
20 | COC(=O)c1ccc(COc2ccc(C)cc2[N+](=O)[O-])o1 | inconclusive: -3.43%
21 | CN(C)S(=O)(=O)c1cc(NC(=O)COC(=O)/C=C/c2ccco2)ccc1Cl | inconclusive: 79.8%
22 | CC(Sc1ncc(C(F)(F)F)cc1Cl)C(=O)NC(N)=O (centres undefined) | inconclusive: 121%
23 | O=C(NC(=O)c1cnccc1C(F)(F)F)Nc1ccccc1 | inconclusive: 592%

Row | SMILES | binding response (% of control)
24 | COc1cc(O)c(C(CCN2CCCCC2)c2cc(OC)c(OC)c(OC)c2)c(OC)c1 (centres undefined) | inconclusive: 86.3%
25 | CC(=O)N(C)N(C)c1cc(C)nc(N)n1 | inconclusive: 101%
26 | O=C(O)c1ccc(NCCc2ccc(Cl)cc2)c([N+](=O)[O-])c1 | inactive: 104%
27 | COc1cc2c(cc1OC)C(C)N(C(=O)c1sc(-c3cnccn3)nc1C)CC2 (centres undefined) | inconclusive: 77.8%
28 | Nc1ncnc(Oc2ccccc2F)c1[N+](=O)[O-] | inconclusive: 112%
29 | CCOC(=O)/C(C#N)=C/c1c(Oc2cccc(C)c2)nc2ccccn2c1=O | inconclusive: 79.2%
30 | C/C(=N\Nc1ccc(S(=O)(=O)Nc2ccccc2)cc1[N+](=O)[O-])c1ccc(N2CCOCC2)cc1 | inconclusive: 105%
31 | Cn1c(=O)[nH]c(=O)c2c1nc(N/N=C/c1ccncc1)n2Cc1ccc(Cl)cc1 | inconclusive: 118%
32 | Cc1ccc(-c2c[n+](CC(=O)Nc3ccccc3)c3n2CCC3)cc1 | inconclusive: 64%
33 | Cc1cc(C(=O)NCc2cccs2)nn1C | inconclusive: 130%
34 | CCCCCCOC(=O)c1ccc(N)cc1 | inconclusive: 95.3%
35 | CCN(CC)c1ccc(/C=N/OCC(=O)Nc2cccc(C)c2)cc1 | inactive: 102%
36 | O=S(=O)(c1ccc(NC(=S)N/N=C/c2ccc(Oc3ccccc3)cc2)cc1)N1CCOCC1 | inconclusive: 97.5%
37 | Cc1nc(-c2ccccn2)nc(N2CCOCC2)c1Cl | inconclusive: 119%
38 | NC(=O)C1CCN(C(=O)CCC(=O)c2ccc(Br)cc2)CC1 | inconclusive: 105%
39 | COc1ccccc1-c1c(NC(=O)C(C)C)n(C)c2ccccc2c1=O | inconclusive: 24%
40 | COC(=O)c1ccc(NC(=O)CNCc2ccncc2)cc1 | inactive: 110%
41 | Cc1cc(C(=O)NC2CCCCC2)on1 | inconclusive: 61.6%
42 | O=C(COc1ccc2ccccc2c1)NCCNC(=O)COc1ccc2ccccc2c1 | inactive: 99.1%
43 | COc1ccc(/C=C(/NC(=O)/C=C/c2ccccc2)C(=O)NCCCCCC(=O)O)cc1 | inconclusive: 121%
44 | CC1(NC(=O)Nc2ccccc2)CCS(=O)(=O)C1 (centres undefined) | inconclusive: 69.8%
45 | O=C(CCN1CCN(c2ccccc2)CC1)Nc1cccc(Br)c1 | inconclusive: 105%
46 | O=C(O)c1cc(NCc2ccccc2C(F)(F)F)ccc1N1CCOCC1 | inactive: 112%

Row | SMILES | binding response (% of control)
47 | NC(=O)c1nnsc1Sc1c(C(N)=O)nnn1-c1cccc(N)c1 | inconclusive: 88.8%
48 | CCC1(c2ccc(F)cc2)NC(=O)N(CC(=O)Nc2cc(S(=O)(=O)N(C)C)ccc2Cl)C1=O (centres undefined) | inactive: 100%
49 | CCC(CC)c1nnc(NC(=O)Cc2ccccc2[N+](=O)[O-])s1 | inconclusive: 106%
50 | Cc1c(C(=N)C(C#N)C#N)c(=N)oc2c1ccc1ccccc12 | inconclusive: 125%
51 | CCCCOc1ccc(C(=O)NCC2(c3ccc(OC)cc3)CCOCC2)cc1 | inactive: 97.4%
52 | Cc1oc2ccc(OCc3ccc(F)cc3Cl)cc2c1C(=O)O | inconclusive: 56%
53 | COC(=O)c1cccc(NC(=O)CC2C(=O)NCCN2C(=O)c2ccc(F)cc2F)c1 (centres undefined) | inconclusive: 87.3%
54 | Nc1nnc(-c2cccnc2)s1 | inconclusive: 152%
55 | Cc1ccc(S(C)(=O)=NC(=O)NC(=O)c2c(F)cccc2Cl)cc1 (centres undefined) | inconclusive: 42.2%
56 | O=C(OCCN1C(=O)c2ccccc2C1=O)c1cccs1 | inactive: 126%
57 | CC#CCc1cc2ccccc2c(=O)o1 | inconclusive: 139%
58 | CC(OC(=O)c1ccc([N+](=O)[O-])s1)C(=O)Nc1ncc(Cl)cc1Cl (centres undefined) | inactive: 99.7%
59 | Cc1ncc([N+](=O)[O-])n1CC(=O)Nc1ccc2c(c1)OCO2 | inconclusive: 100%
60 | O=C(O)c1cc2n(n1)C(C(F)(F)F)CC(C1CC1)N2 (centres undefined) | inconclusive: 112%
61 | Cc1ccc(C(N)=Nc2ccccc2)cc1 | inconclusive: 66.4%
62 | O=C(CN(Cc1ccccc1)C(=O)c1csnn1)NCc1ccccc1 | inconclusive: 96.9%
63 | O=C1C=Cc2ccccc2/C1=C/c1[nH]c(=O)[nH]c1O | inconclusive: -104%
64 | Cc1c(-c2nc(-c3ccncc3)no2)cccc1[N+](=O)[O-] | inconclusive: 95.8%
65 | O=C(Cc1ccc([N+](=O)[O-])cc1)N1N=C(C2CC2)CC1(O)C(F)(F)F (centres undefined) | inactive: 78.9%
66 | CCN1CCN(Cc2ccc(NC(=O)c3ccc(C)c(NC(=O)C4=NN(c5ccccc5)C(=O)C4)c3)cc2C(F)(F)F)CC1 | inconclusive: 101%
67 | O=C(CNC(=O)c1ccc(Cl)cc1)Nc1ccccc1C(F)(F)F | inconclusive: 95.4%
68 | Nc1nonc1-n1nnc(C(=O)N/N=C/c2ccc(OCc3ccc(F)cc3)cc2)c1COc1ccccc1 | inconclusive: 96.4%
69 | c1cc(-c2sc(-c3ccncc3)c(-c3ccncc3)c2-c2ccncc2)ccn1 | inconclusive: 71.9%

Retrieved one by one from above (two):
Row | SMILES | binding response (% of control)
64 | Cc1c(-c2nc(-c3ccncc3)no2)cccc1[N+](=O)[O-] | inconclusive: 95.8%
52 | Cc1oc2ccc(OCc3ccc(F)cc3Cl)cc2c1C(=O)O | inconclusive: 56%

More compounds follow:

Row | SMILES | binding response (% of control)
70 | O=C(CC(C(=O)NCc1ccccc1)c1nc2ccccc2c(=O)[nH]1)NCc1ccccc1 (centres undefined) | inconclusive: 83.1%
71 | CCN(C(=O)Cn1c(=O)oc2cc(S(=O)(=O)N3CCOCC3)ccc21)c1ccccc1 | inconclusive: 72.5%
72 | O=C(c1ccc(Cl)cc1)N1CCCC(C(=O)N2CCN(c3ccccc3)CC2)C1 (centres undefined) | inconclusive: 973%
73 | CN(C)CCCn1c(=O)n(CCc2ccccc2)c(=O)c2c3c(sc21)CCCCC3 | inconclusive: 108%
74 | NC(=O)CC(NC(=O)Cc1cccc2ccccc12)c1ccc(N2CCC(Br)CC2)c([N+](=O)[O-])c1 (centres undefined) | inconclusive: 101%
75 | Cc1cc(C(=O)NC2CCCCC2)c2cc(F)ccc2n1 | inconclusive: 98.9%
76 | CSc1nnc(C)c(=O)n1COC(=O)COc1ccc(Cl)cc1Cl | inactive: 99.4%
77 | N#C/C(=C\c1ccccc1)c1ccccn1 | inconclusive: 93.3%
78 | O=C(COc1ccc(Cl)cc1Cl)NNC(=S)NC(=O)c1ccco1 | inconclusive: 116%
79 | CC(C)(C)c1ccc(C(=O)NNc2ccc(F)cc2F)cc1 | inconclusive: 91.2%
80 | COc1ccc(CNC(=O)Cn2ncn3c(cc4ccccc43)c2=O)cc1 | inconclusive: 44.6%
81 | CCn1cc(C(=O)N2CCN(c3ccc(C(C)=O)cc3)CC2)c2cc(OC)c(OC)cc2c1=O | inconclusive: 101%
82 | O=C(Nc1nnc(-c2ccco2)o1)c1cccc(N2C(=O)CCC2=O)c1 | inconclusive: 79.7%
83 | O=c1c2ccccc2[nH]c(=S)n1CCN1CCc2ccccc2C1 | inconclusive: 129%
84 | Cc1ccc(S(=O)(=O)C2(S(=O)(=O)c3ccc(C)cc3)CC2)cc1 | inconclusive: 94.3%
85 | Cc1cccc(N=C2NC(=O)/C(=C/c3cccn3C)S2)c1C | inconclusive: 100%
86 | CCCCCC(=O)Nc1cccc(C2=NOC3(C2)C[C@H](C(N)=O)N(C(=O)COc2ccc(Cl)cc2)C3)c1 (some centres undefined) | inconclusive: 94.5%
87 | COC(=O)c1ccc(CSc2nncn2N)cc1 | inconclusive: 102%
88 | O=C1c2ccc(-c3ccc4c(c3)C(=O)N(CCO)C4=O)cc2C(=O)N1CCO | inconclusive: 89.7%
89 | O=C(NCc1ccco1)C(=O)c1cn(CC(=O)N2CCCCC2)c2ccccc12 | inactive: 95.9%

Some of the entries so far, as tab-separated lines.
Row	SMILES	binding response (% of control)
76	CSc1nnc(C)c(=O)n1COC(=O)COc1ccc(Cl)cc1Cl	inactive: 99.4%
77	N#C/C(=C\c1ccccc1)c1ccccn1	inconclusive: 93.3%
